Results are given in words; binding and its absence hold for the method and conditions named. In cells and extracts the contact can be indirect. Binding can be weak; no strength is given. Sequences can lack the tags named with a protein.

Amino acid sequences for entries named in this document (tags omitted). A change or cut given only in a name is not applied to a line headed by its entry.
UniProt O48915: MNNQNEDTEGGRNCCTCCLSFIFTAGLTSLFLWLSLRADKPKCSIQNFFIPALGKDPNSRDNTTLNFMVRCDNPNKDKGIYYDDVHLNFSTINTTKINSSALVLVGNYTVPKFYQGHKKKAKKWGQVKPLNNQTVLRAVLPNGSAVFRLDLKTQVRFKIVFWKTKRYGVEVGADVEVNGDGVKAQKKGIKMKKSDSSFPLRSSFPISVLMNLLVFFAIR

Experimental findings from article doi:10.1101/2021.06.10.445978 are described below.

Test [1] deals with Flag-NDR1 (Arabidopsis thaliana) (UniProt O48915). Description: co-IP.
The target in test [2] is myc-nEYFP-NDR1 (Arabidopsis thaliana) (UniProt O48915). Description: split reporter.

B1: HA-AHA5 (enzyme, UniProt Q9SJB3 1-949)
chain: MSELDHIKNESVDLVRIPMEEVFEELKCTKQGLTANEASHRLDVFGPNKLEEKKESKLLKFLGFMWNPLSWVMEVAALMAIALANGGGRPPDWQDFVGIVCLLLINSTISFIEENNAGNAAAALMAGLAPKTKVLRDNQWSEQEASILVPGDVISIKLGDIIPADARLLDGDPLKIDQSSLTGESIPVTKNPSDEVFSGSICKQGEIEAIVIATGVHTFFGKAAHLVDNTNQIGHFQKVLTSIGNFCICSIALGIIVELLVMYPIQRRRYRDGIDNLLVLLIGGIPIAMPSVLSVTMATGSHRLFQQGAITKRMTAIEEMAGMDVLCCDKTGTLTLNKLTVDKNLVEVFAKGVGKEHVFLLAARASRIENQDAIDAAIVGMLADPKEARAGVREVHFFPFNPVDKRTALTYVDSDGNWHRASKGAPEQILNLCNCKEDVRRKVHGVIDKFAERGLRSLAVARQEVLEKKKDAPGGPWQLVGLLPLFDPPRHDSAETIRRALNLGVNVKMITGDQLAIGKETGRRLGMGTNMYPSSALLGQVKDSSLGALPVDELIEKADGFAGVFPEHKYEIVHRLQQRNHICGMTGDGVNDAPALKKADIGIAVVDATDAARGASDIVLTEPGLSVIISAVLTSRAIFQRMKNYTIYAVSITIRIVFGFMFIALIWQFDFSPFMVLIIAILNDGTIMTISKDRMKPSPQPDSWKLRDIFSTGVVLGGYQALMTVVFFWVMKDSDFFSNYFGVRPLSQRPEQMMAALYLQVSIISQALIFVTRSRSWSYAECPGLLLLGAFVIAQLVATFIAVYANWSFARIEGAGWGWAGVIWLYSFLTYIPLDLLKFGIRYVLSGKAWLNLLENKTAFTTKKDYGKEEREAQWAAAQRTLHGLQPAEKNNIFNEKNSYSELSQIAEQAKRRAEVVRLREINTLKGHVESVVKLKGLDIDTIQQHYTV
B1: in test [1], the binding entry is recorded as “binds”.

B2: AHA5-HA-cEYFP (enzyme, UniProt Q9SJB3 1-949)
chain: MSELDHIKNESVDLVRIPMEEVFEELKCTKQGLTANEASHRLDVFGPNKLEEKKESKLLKFLGFMWNPLSWVMEVAALMAIALANGGGRPPDWQDFVGIVCLLLINSTISFIEENNAGNAAAALMAGLAPKTKVLRDNQWSEQEASILVPGDVISIKLGDIIPADARLLDGDPLKIDQSSLTGESIPVTKNPSDEVFSGSICKQGEIEAIVIATGVHTFFGKAAHLVDNTNQIGHFQKVLTSIGNFCICSIALGIIVELLVMYPIQRRRYRDGIDNLLVLLIGGIPIAMPSVLSVTMATGSHRLFQQGAITKRMTAIEEMAGMDVLCCDKTGTLTLNKLTVDKNLVEVFAKGVGKEHVFLLAARASRIENQDAIDAAIVGMLADPKEARAGVREVHFFPFNPVDKRTALTYVDSDGNWHRASKGAPEQILNLCNCKEDVRRKVHGVIDKFAERGLRSLAVARQEVLEKKKDAPGGPWQLVGLLPLFDPPRHDSAETIRRALNLGVNVKMITGDQLAIGKETGRRLGMGTNMYPSSALLGQVKDSSLGALPVDELIEKADGFAGVFPEHKYEIVHRLQQRNHICGMTGDGVNDAPALKKADIGIAVVDATDAARGASDIVLTEPGLSVIISAVLTSRAIFQRMKNYTIYAVSITIRIVFGFMFIALIWQFDFSPFMVLIIAILNDGTIMTISKDRMKPSPQPDSWKLRDIFSTGVVLGGYQALMTVVFFWVMKDSDFFSNYFGVRPLSQRPEQMMAALYLQVSIISQALIFVTRSRSWSYAECPGLLLLGAFVIAQLVATFIAVYANWSFARIEGAGWGWAGVIWLYSFLTYIPLDLLKFGIRYVLSGKAWLNLLENKTAFTTKKDYGKEEREAQWAAAQRTLHGLQPAEKNNIFNEKNSYSELSQIAEQAKRRAEVVRLREINTLKGHVESVVKLKGLDIDTIQQHYTV
On to B2, for which the binding result in test [2] was “binds”.
